No constants are given. Whether binding was seen depends on the method and setting. In cells and extracts the contact can be indirect. Some results given as binding are weak or reduced against the parent protein; the word gives no strength. Sequences can lack the tags named with a protein.
Target: T1, Flag-Id3 (mouse) (UniProt P41133)
T1 sequence: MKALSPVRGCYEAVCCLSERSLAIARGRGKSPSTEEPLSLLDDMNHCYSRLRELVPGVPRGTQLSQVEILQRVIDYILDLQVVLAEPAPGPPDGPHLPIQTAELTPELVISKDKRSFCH
Test: co-IP; C2C12 cells co-transfected with pcDNA3.1-XBP1u and Flag-Id3, treated with MG132 (20 uM) for 6 h before lysis; RIPA lysis buffer; Pierce Crosslink magnetic IP and Co-IP kit; immunoprecipitated with anti-Flag antibodies, rabbit IgG as negative control; western blot

B1: unspliced X-box-binding protein 1 (XBP1u) (protein, UniProt O35426-1 1-267)
chain: MVVVAAAPSAATAAPKVLLLSGQPASGGRALPLMVPGPRAAGSEASGTPQARKRQRLTHLSPEEKALRRKLKNRVAAQTARDRKKARMSELEQQVVDLEEENHKLQLENQLLREKTHGLVVENQELRTRLGMDTLDPDEVPEVEAKGSGVRLVAGSAESAALRLCAPLQQVQAQLSPPQNIFPWTLTLLPLQILSLISFWAFWTSWTLSCFSNVLPQSLLVWRNSQRSTQKDLVPYQPPFLCQWGPHQPSWKPLMNSFVLTMYTPSL
binding: binds
